No constants are given. Whether binding was seen depends on the method and setting. In cells and extracts the contact can be indirect. Some binding calls cover weakened binding; strength is not graded here. For some of these results: Tags and fused reporters may be left off the sequences shown.
Legend:
[1] = target: Myo19–FLAG (UniProt Q96H55); assay: co-IP; anti-FLAG agarose affinity purification of Myo19–FLAG from Mtx3 KO cells (absence of Mtx3); eluted with FLAG peptide; immunoblot
[2] = target: Halo–Miro1 (human) (UniProt Q8IXI2); assay: co-IP; Halo-Trap agarose pull-down from lysates of Miro DKO cells stably expressing Halo-tagged Miro constructs; inputs and eluates analysed by western blot
[3] = target: T1, Halo–Miro1–VAMP1B tail (UniProt Q8IXI2); assay: as above
T1 sequence: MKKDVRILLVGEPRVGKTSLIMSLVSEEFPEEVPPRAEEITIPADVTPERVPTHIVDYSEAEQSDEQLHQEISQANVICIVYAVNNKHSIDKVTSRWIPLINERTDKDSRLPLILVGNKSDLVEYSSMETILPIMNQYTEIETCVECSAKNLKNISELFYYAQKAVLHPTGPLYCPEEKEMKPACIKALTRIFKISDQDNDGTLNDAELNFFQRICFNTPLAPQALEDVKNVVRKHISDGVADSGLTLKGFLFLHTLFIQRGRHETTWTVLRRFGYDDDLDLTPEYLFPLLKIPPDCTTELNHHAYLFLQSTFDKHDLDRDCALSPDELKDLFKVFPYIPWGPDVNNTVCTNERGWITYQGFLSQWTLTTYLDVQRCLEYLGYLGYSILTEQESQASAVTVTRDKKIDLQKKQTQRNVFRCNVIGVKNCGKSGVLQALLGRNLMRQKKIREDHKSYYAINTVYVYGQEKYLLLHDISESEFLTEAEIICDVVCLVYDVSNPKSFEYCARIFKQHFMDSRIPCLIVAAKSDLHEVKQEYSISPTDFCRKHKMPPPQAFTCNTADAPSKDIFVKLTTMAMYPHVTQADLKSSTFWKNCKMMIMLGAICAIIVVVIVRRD

By UniProt entry, the sequences of proteins in these tests, tags left out.
UniProt Q96H55: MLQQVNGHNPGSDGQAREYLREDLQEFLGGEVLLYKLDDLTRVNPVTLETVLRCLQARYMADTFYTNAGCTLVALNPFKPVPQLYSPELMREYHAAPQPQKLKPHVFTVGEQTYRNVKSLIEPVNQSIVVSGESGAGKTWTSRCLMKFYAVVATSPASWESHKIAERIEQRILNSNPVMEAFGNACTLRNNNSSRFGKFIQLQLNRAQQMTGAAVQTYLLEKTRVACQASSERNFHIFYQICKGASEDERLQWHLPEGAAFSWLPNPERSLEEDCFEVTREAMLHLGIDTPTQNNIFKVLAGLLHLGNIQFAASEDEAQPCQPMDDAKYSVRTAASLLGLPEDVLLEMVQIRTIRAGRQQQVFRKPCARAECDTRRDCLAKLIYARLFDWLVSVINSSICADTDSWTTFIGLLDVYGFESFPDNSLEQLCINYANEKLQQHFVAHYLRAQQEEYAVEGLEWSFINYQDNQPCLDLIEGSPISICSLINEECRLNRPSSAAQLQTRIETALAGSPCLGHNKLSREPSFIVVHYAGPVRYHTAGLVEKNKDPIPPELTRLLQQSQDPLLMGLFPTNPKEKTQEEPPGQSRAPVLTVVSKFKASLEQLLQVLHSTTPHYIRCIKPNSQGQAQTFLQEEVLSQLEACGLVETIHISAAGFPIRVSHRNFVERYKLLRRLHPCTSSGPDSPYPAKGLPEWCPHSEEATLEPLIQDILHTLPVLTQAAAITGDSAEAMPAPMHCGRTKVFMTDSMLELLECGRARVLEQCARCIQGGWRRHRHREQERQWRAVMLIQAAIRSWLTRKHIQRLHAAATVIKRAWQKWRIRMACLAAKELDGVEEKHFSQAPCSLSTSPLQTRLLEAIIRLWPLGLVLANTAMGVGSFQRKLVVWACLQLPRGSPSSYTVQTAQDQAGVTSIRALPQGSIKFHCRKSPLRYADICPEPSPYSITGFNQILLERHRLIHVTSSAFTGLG
UniProt Q8IXI1: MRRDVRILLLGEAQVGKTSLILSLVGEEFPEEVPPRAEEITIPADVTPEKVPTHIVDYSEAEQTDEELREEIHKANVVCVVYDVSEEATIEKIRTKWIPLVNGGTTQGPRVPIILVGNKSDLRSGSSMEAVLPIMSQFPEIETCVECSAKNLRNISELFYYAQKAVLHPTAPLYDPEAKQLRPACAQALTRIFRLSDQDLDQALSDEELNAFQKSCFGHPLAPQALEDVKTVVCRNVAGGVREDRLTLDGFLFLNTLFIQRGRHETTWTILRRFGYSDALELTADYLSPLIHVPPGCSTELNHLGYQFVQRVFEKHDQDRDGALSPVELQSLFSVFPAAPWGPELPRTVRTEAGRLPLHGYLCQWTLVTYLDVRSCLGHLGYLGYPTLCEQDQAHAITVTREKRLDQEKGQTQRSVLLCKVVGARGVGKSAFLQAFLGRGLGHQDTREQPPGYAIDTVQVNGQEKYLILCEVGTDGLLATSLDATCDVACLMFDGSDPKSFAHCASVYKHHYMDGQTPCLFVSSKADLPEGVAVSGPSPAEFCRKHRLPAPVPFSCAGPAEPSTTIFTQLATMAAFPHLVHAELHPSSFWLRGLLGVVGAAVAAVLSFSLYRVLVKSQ

[4] = target: Halo–Miro2 (aa 1–592)–Bcl-xL (UniProt Q8IXI1); assay: as above
[5] = target: Halo–Miro2 (human) (UniProt Q8IXI1); assay: as above
[6] = target: T2, Mtx3–FLAG (human) (UniProt Q5HYI7); assay: co-IP; anti-FLAG agarose affinity purification from lysates of cells stably expressing Myo19–FLAG (HeLa) or Mtx3–FLAG (Mtx3 KO cells); lysis buffer 150 mM NaCl, 20 mM HEPES pH 7.4, 2 mM MgCl2, 1 mM EGTA, 0.5% Triton X-100, 2 mM ATP; 2 h at 4°C; eluted with FLAG peptide; immunoblot
T2 sequence: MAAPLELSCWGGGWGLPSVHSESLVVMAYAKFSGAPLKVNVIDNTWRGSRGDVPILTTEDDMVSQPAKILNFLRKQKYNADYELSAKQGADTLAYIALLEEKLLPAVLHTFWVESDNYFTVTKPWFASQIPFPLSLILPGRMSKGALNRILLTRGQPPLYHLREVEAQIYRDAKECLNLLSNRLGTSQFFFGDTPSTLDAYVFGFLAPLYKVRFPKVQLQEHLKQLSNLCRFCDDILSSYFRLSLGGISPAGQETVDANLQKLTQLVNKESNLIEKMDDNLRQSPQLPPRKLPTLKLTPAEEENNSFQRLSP

[7] = target: Myo19–FLAG (UniProt Q96H55); assay: as above

B1: Sam50, endogenous (protein, UniProt Q9Y512 1-469)
chain: MGTVHARSLEPLPSSGPDFGGLGEEAEFVEVEPEAKQEILENKDVVVQHVHFDGLGRTKDDIIICEIGDVFKAKNLIEVMRKSHEAREKLLRLGIFRQVDVLIDTCQGDDALPNGLDVTFEVTELRRLTGSYNTMVGNNEGSMVLGLKLPNLLGRAEKVTFQFSYGTKETSYGLSFFKPRPGNFERNFSVNLYKVTGQFPWSSLRETDRGMSAEYSFPIWKTSHTVKWEGVWRELGCLSRTASFAVRKESGHSLKSSLSHAMVIDSRNSSILPRRGALLKVNQELAGYTGGDVSFIKEDFELQLNKQLIFDSVFSASFWGGMLVPIGDKPSSIADRFYLGGPTSIRGFSMHSIGPQSEGDYLGGEAYWAGGLHLYTPLPFRPGQGGFGELFRTHFFLNAGNLCNLNYGEGPKAHIRKLAECIRWSYGAGIVLRLGNIARLELNYCVPMGVQTGDRICDGVQFGAGIRFL
binding [1]: binds weakly | binding [2]: binds | binding [3]: binds | binding [4]: binds | binding [5]: binds | binding [6]: binds | binding [7]: binds

B2: metaxin 3 (Mtx3), endogenous (protein, UniProt Q5HYI7 1-312)
chain: T2 sequence
binding [3]: no binding | binding [4]: no binding | binding [7]: binds

Reference: paper PMC11925395
